Test results reported in PMC2660581.
Like-named read-outs stand apart in the source and are kept apart here. No constants are given. Whether binding was seen depends on the method and setting. Some binding calls cover weakened binding; strength is not graded here.

By UniProt entry, the sequences of proteins in these tests, tags left out. Where a name states a change or a piece, a line headed by the entry shows the natural chain unless it says otherwise. Chains listed by the source or under a name are the forms on record and can include a tag or linker. Residues count along the entry.
NOD2 CARD (1+2) (Q9HC29, residues 1-267): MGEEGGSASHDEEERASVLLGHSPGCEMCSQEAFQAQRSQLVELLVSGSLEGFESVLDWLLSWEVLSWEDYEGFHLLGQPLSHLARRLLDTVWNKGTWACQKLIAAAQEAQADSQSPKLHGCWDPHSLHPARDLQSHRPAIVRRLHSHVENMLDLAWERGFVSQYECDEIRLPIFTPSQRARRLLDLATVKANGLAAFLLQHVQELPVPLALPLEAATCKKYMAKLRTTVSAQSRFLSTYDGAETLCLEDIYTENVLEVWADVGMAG
NOD2 1–163 (Q9HC29, residues 1-163): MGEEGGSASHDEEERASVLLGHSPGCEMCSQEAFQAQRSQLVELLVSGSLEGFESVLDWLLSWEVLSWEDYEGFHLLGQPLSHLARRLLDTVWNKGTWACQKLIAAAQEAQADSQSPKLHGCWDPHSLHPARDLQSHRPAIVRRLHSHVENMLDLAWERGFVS
NOD2 1–135 (Q9HC29, residues 1-135): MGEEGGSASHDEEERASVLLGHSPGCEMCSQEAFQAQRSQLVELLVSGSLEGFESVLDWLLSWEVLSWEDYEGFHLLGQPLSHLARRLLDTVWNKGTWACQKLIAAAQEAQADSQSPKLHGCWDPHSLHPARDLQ
NOD2 CARD (1) (Q9HC29, residues 1-116): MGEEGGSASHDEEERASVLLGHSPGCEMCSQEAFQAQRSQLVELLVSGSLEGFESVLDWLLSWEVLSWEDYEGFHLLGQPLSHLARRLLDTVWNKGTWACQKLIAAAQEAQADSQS
NOD2 117–267 (Q9HC29, residues 117-267): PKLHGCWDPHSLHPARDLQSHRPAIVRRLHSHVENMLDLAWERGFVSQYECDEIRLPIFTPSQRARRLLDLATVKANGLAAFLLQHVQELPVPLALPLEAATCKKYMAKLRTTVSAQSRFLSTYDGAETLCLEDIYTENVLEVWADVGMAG
NOD2 CARD (2) (Q9HC29, residues 135-255): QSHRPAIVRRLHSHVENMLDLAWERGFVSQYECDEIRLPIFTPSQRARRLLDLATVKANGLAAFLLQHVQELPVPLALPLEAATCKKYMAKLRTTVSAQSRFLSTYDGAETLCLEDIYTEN
NOD2 CARD (1+2) D70K (Q9HC29, form named): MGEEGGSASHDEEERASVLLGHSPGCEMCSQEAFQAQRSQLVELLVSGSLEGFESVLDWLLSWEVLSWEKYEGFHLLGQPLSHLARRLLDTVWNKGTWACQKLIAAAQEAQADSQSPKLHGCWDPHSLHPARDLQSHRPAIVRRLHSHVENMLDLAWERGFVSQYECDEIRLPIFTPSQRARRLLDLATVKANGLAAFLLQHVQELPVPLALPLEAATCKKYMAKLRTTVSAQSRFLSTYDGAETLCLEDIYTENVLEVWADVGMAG
NOD2 CARD (1+2) E69K (Q9HC29, form named): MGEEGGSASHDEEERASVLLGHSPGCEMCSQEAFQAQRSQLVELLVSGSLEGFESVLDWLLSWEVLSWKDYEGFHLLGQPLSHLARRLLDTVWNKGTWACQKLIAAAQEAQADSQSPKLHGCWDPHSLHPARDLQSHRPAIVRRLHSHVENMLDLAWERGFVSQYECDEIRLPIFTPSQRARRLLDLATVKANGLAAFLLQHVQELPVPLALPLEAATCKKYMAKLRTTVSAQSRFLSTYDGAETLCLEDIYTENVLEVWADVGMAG
NOD2 CARD (1+2) R132Q (Q9HC29, form named): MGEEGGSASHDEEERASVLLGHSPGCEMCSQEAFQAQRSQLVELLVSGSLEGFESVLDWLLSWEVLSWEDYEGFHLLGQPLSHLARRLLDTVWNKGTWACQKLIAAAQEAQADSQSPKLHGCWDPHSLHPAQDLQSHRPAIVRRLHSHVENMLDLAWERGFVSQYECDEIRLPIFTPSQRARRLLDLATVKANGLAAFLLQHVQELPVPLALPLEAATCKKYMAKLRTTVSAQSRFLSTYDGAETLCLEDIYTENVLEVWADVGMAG
UniProt Q9ULZ3, residues 105-195: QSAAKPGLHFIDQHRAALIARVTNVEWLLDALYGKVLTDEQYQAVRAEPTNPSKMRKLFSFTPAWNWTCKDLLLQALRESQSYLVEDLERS
UniProt O14727, residues 1-92: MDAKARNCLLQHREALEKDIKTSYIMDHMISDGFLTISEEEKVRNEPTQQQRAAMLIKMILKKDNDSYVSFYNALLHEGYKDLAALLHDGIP

Columns and labels:
[1] = target: NOD2 CARD (1+2) (human) (UniProt Q9HC29); experiment: two-hybrid; strength of the interaction: transformants spotted on SD/-His/-Leu/-Trp with increasing amounts of 3-aminotriazole (HIS3 reporter)
[2] = target: NOD2 CARD (1+2) (human) (UniProt Q9HC29); experiment: two-hybrid; … GAL4 Two-Hybrid System 3, S. cerevisiae AH109 co-transformed with pGBKT7 and pGADT7 fusions; growth on SD/-Ade/-His/-Leu/-Trp, 4 days at 30°C; “each against all” screen (26×26) and later tests with refined constructs
[3] = target: ASC CARD (UniProt Q9ULZ3); experiment: as above
[4] = target: T1, NLRC4 CARD (UniProt Q9NPP4); experiment: as above
T1 sequence: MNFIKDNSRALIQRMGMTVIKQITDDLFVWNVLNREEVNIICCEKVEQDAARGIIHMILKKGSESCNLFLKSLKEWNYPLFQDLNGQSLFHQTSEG

[5] = target: T2, NLRP1 CARD (UniProt Q9C000); experiment: as above
T2 sequence: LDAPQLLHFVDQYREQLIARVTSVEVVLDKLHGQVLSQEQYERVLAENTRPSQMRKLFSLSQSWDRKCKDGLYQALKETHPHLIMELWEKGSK

[6] = target: T3, NLRP1 PYD (UniProt Q9C000); experiment: as above
T3 sequence: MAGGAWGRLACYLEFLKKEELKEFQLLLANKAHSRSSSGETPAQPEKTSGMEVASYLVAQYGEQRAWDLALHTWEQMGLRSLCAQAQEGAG

[7] = target: T4, NOD1 CARD (16–108) (UniProt Q9Y239); experiment: as above
T4 sequence: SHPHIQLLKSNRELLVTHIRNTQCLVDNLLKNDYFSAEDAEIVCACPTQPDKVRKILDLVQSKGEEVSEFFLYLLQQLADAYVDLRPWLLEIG

[8] = target: T5, NOD1 CARD (1–110) (UniProt Q9Y239); experiment: as above
T5 sequence: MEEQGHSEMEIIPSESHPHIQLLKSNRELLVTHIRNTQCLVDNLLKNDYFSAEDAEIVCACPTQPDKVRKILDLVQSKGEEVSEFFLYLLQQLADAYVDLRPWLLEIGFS

[9] = target: NOD2 CARD (1) (human) (UniProt Q9HC29); experiment: as above
[10] = target: NOD2 CARD (2) (human) (UniProt Q9HC29); experiment: as above
[11] = target: T5, NOD1 CARD (1–110); experiment: as above; remark: listed apart in the source
[12] = target: NOD2 117–267 (human) (UniProt Q9HC29); experiment: as above
[13] = target: NOD2 1–135 (human) (UniProt Q9HC29); experiment: as above
[14] = target: NOD2 1–163 (human) (UniProt Q9HC29); experiment: as above
[15] = target: NOD2 CARD (1) (human) (UniProt Q9HC29); experiment: as above; remark: listed apart in the source
[16] = target: NOD2 CARD (1+2) (human) (UniProt Q9HC29); experiment: as above; remark: listed apart in the source
[17] = target: NOD2 CARD (1+2) D70K (human) (UniProt Q9HC29); experiment: as above
[18] = target: NOD2 CARD (1+2) E69K (human) (UniProt Q9HC29); experiment: as above
[19] = target: NOD2 CARD (1+2) R132Q (human) (UniProt Q9HC29); experiment: as above
[20] = target: NOD2 CARD (2) (human) (UniProt Q9HC29); experiment: as above; remark: listed apart in the source
[21] = target: T2, NLRP1 CARD; experiment: as above; remark: listed apart in the source
[22] = target: T3, NLRP1 PYD; experiment: as above; remark: listed apart in the source
[23] = target: T4, NOD1 CARD (16–108); experiment: as above; remark: listed apart in the source
[24] = target: APAF1 CARD (UniProt O14727); experiment: as above
[25] = target: T1, NLRC4 CARD; experiment: as above; remark: listed apart in the source
[26] = target: T6, CASP1 CARD, P29466; experiment: as above; conditions: remark: other sources report otherwise
T6 chain: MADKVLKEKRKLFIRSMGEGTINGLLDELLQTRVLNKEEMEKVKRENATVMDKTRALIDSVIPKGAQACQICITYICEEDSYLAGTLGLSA

## NOD2 CARD (1+2) (from UniProt Q9HC29 1-267) (domain or fragment)
[1]
  binding: binds weakly
[2]
  binding: binds

## CASP1 CARD (from UniProt P29466 1-91) (domain or fragment)
[3]
  binding: binds
[4]
  binding: no binding
[5]
  binding: no binding
[6]
  binding: no binding
[7]
  binding: no binding
[8]
  binding: no binding
[9]
  binding: no binding
[2]
  binding: no binding
[10]
  binding: no binding

B1: NLRP1, PYD+linker (domain or fragment, UniProt Q9C000 1-341)
chain: MAGGAWGRLACYLEFLKKEELKEFQLLLANKAHSRSSSGETPAQPEKTSGMEVASYLVAQYGEQRAWDLALHTWEQMGLRSLCAQAQEGAGHSPSFPYSPSEPHLGSPSQPTSTAVLMPWIHELPAGCTQGSERRVLRQLPDTSGRRWREISASLLYQALPSSPDHESPSQESPNAPTSTAVLGSWGSPPQPSLAPREQEAPGTQWPLDETSGIYYTEIREREREKSEKGRPPWAAVVGTPPQAHTSLQPHHHPWEPSVRESLCSTWPWKNEDFNQKFTQLLLLQRPHPRSQDPLVKRSWPDYVEENRGHLIEIRDLFGPGLDTQEPRIVILQGAAGIGKS
[11]
  binding: no binding
[12]
  binding: no binding
[13]
  binding: no binding
[14]
  binding: no binding
[15]
  binding: no binding
[16]
  binding: binds
[17]
  binding: no binding
[18]
  binding: binds
[19]
  binding: binds
[20]
  binding: no binding

B2: CASP2 CARD (domain or fragment, UniProt P42575 32-121)
chain: MHPHHQETLKKNRVVLAKQLLLSELLEHLLEKDIITLEMRELIQAKVGSFSQNVELLNLLPKRGPQAFDAFCEALRETKQGHLEDMLLTT
[21]
  binding: no binding
[22]
  binding: no binding
[23]
  binding: no binding
[11]
  binding: no binding
[15]
  binding: no binding
[16]
  binding: no binding
[20]
  binding: no binding

B3: CASP4 CARD (domain or fragment, UniProt P49662 1-89)
chain: MAEGNHRKKPLKVLESLGKDFLTGVLDNLVEQNVLNWKEEEKKKYYDAKTEDKVRVMADSMQEKQRMAGQMLLQTFFNIDQISPNKKAH
[24]
  binding: no binding
[23]
  binding: no binding
[11]
  binding: no binding
[15]
  binding: no binding
[16]
  binding: no binding
[20]
  binding: no binding

B4: NLRP1 PYD (domain or fragment, UniProt Q9C000 1-91)
chain: T3 sequence
[25]
  binding: no binding
[21]
  binding: no binding
[22]
  binding: no binding
[23]
  binding: no binding
[11]
  binding: no binding

B5: CASP1 CARD, P29466 1-91 (domain or fragment)
chain: T6 chain
[26]
  binding: no binding
